± gives the standard deviation of the averaged measurements. Most values lie at the level of the controls, where differences are scatter.
Experiments:
Assay in all cases: level (log10 ratio to DMSO vehicle control); higher = higher biomarker level / cell amount than vehicle control
[1] = compound: C=C(C)C(=O)OCCC(F)(F)C(F)(F)C(F)(F)C(F)(F)C(F)(F)C(F)(F)F [6:2 Fluorotelomer methacrylate] (in DMSO); conditions: 2200 nM
Method: (§1)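 BioMAP Diversity Plus panel of 12 human primary cell co-culture systems (3C, 4H, LPS, SAg, BT, BF4T, BE3C, CASM3C, HDF3CGF, KF3CT, MyoF, Mphg). Compounds were added 1 h before stimulation and left for 24 h (MyoF 48 h; BT 72 h for soluble read-outs or 6 d for IgG). Biomarkers were read by ELISA, cytotoxicity by SRB, PBMC viability and proliferation by Alamar Blue. Each well value was divided by the mean of 8 DMSO control wells on the same plate and log10 transformed; duplicate blinded samples were tested at 4 concentrations.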

[2] = compound: CNS(=O)(=O)C(F)(F)C(F)(F)C(F)(F)C(F)(F)C(F)(F)C(F)(F)C(F)(F)C(F)(F)F [N-Methylperfluorooctanesulfonamide] (in DMSO); conditions: 2200 nM
Method: as §1

[3] = compound: FC(F)(F)C(F)(F)C(F)(F)C(F)(F)CCI [1H,1H,2H,2H-Perfluorohexyl iodide] (in DMSO); conditions: 2200 nM
Method: as §1

[4] = compound: FC(F)(F)C(F)(F)CNCC(F)(F)C(F)(F)F [Bis(1H,1H-perfluoropropyl)amine] (in DMSO); conditions: 2200 nM
Method: as §1

[5] = compound: FC(F)(F)COC(OCC(F)(F)F)OCC(F)(F)F [tris(Trifluoroethoxy)methane] (in DMSO); conditions: 2200 nM
Method: as §1

Hexafluoroglutaric acid = compound: O=C(O)C(F)(F)C(F)(F)C(F)(F)C(=O)O [Hexafluoroglutaric acid] (in DMSO)
Method: as §1

Perfluorohexanoic acid = compound: O=C(O)C(F)(F)C(F)(F)C(F)(F)C(F)(F)C(F)(F)F [Perfluorohexanoic acid] (in DMSO)
Method: as §1

[6] = compound: O=C(O)C(F)(F)C(F)(F)C(F)(F)OC(F)(C(F)(F)F)C(F)(F)F [Perfluoro-4-isopropoxybutanoic acid] (in DMSO); conditions: 2200 nM
Method: as §1

[7] = compound: O=C(O)C(F)(OC(F)(F)C(F)(F)C(F)(F)F)C(F)(F)F [Ammonium perfluoro-2-methyl-3-oxahexanoate] (in Water)
Method: as §1

[8] = compound: O=C(O)C(F)(OC(F)(F)C(F)(OC(F)(F)C(F)(OC(F)(F)C(F)(F)C(F)(F)F)C(F)(F)F)C(F)(F)F)C(F)(F)F [Perfluoro-(2,5,8-trimethyl-3,6,9-trioxadodecanoic)acid] (in DMSO); conditions: 370 nM
Method: as §1

[9] = compound: O=C(O)CCC(F)(F)C(F)(F)C(F)(F)F [3:3 Fluorotelomer carboxylic acid] (in DMSO); conditions: 2200 nM
Method: as §1

[10] = compound: O=S(=O)(O)C(F)(F)C(F)(F)C(F)(F)C(F)(F)F [Perfluorobutanesulfonic acid] (in DMSO)
Method: as §1

[11] = compound: OCC(F)(F)C(F)(F)C(F)(F)C(F)(F)C(F)(F)C(F)(F)CO [1H,1H,8H,8H-Perfluorooctane-1,8-diol] (in DMSO); conditions: 2200 nM
Method: as §1

[12] = compound: OCC(F)(F)C(F)(F)C(F)(F)C(F)(F)C(F)(F)C(F)(F)F [6:1 Fluorotelomer alcohol] (in DMSO); conditions: 2200 nM
Method: as §1

[13] = compound: OCC(F)(F)C(F)(F)C(F)(F)C(F)F [1H,1H,5H-Perfluoropentanol] (in DMSO); conditions: 2200 nM
Method: as §1

[14] = compound: OCC(F)(F)OC(F)(F)C(F)(F)OC(F)(F)CO [1H,1H,8H,8H-Perfluoro-3,6-dioxaoctane-1,8-diol] (in DMSO); conditions: 2200 nM
Method: as §1

[15] = compound: OCCCC(F)(F)C(F)(F)C(F)(F)C(F)(F)C(F)(F)C(F)(F)C(F)(F)C(F)(F)F [3-(Perfluorooctyl)propanol] (in DMSO); conditions: 2200 nM
Method: as §1

BF4T:MMP-1
level (log10) [1]: 0.014 ± 0.016 | level (log10) [2]: 0.004 ± 0.021 | level (log10) [3]: 0.0165 ± 0.0021 | level (log10) [4]: 0.0105 ± 0.021 | level (log10) [5]: 0.0095 ± 0.0092 | level (log10) (Hexafluoroglutaric acid; 2200 nM): 0.008 ± 0.02 | level (log10) (Hexafluoroglutaric acid; 6700 nM): 0.0035 ± 0.013 | level (log10) (Hexafluoroglutaric acid; 20000 nM): 0.0215 ± 0.012 | level (log10) (Hexafluoroglutaric acid; 60000 nM): 0.018 ± 0.0099 | level (log10) (Perfluorohexanoic acid; 2200 nM): 0.015 ± 0.0028 | level (log10) (Perfluorohexanoic acid; 6700 nM): 0.0005 ± 0.015 | level (log10) (Perfluorohexanoic acid; 20000 nM): -0.009 ± 0.0071 | level (log10) (Perfluorohexanoic acid; 60000 nM): -0.0005 ± 0.0078 | level (log10) [6]: 0.0015 ± 0.0092 | level (log10) ([7]; 2200 nM): 0.042 ± 0.037 | level (log10) ([7]; 6700 nM): 0.031 ± 0.02 | level (log10) ([7]; 20000 nM): 0.0105 ± 0.023 | level (log10) ([7]; 60000 nM): 0.029 ± 0.011 | level (log10) [8]: 0.0065 ± 0.0078 | level (log10) [9]: -0.0005 ± 0.013 | level (log10) ([10]; 2200 nM): 0.001 ± 0.0071 | level (log10) ([10]; 6700 nM): 0.0035 ± 0.0064 | level (log10) ([10]; 20000 nM): -0.009 ± 0.013 | level (log10) ([10]; 60000 nM): -0.0045 ± 0.00071 | level (log10) [11]: 0.0115 ± 0.015 | level (log10) [12]: 0.004 ± 0.017 | level (log10) [13]: 0.0105 ± 0.015 | level (log10) [14]: 0.0195 ± 0.005 | level (log10) [15]: 0.0125 ± 0.023

BF4T:CD106/VCAM-1
level (log10) [1]: -0.004 ± 0.014 | level (log10) [2]: 0.0205 ± 0.018 | level (log10) [3]: 0.0265 ± 0.039 | level (log10) [4]: 0.0175 ± 0.064 | level (log10) [5]: 0.0265 ± 0.067 | level (log10) (Hexafluoroglutaric acid; 2200 nM): 0.022 ± 0.033 | level (log10) (Hexafluoroglutaric acid; 6700 nM): -0.0055 ± 0.023 | level (log10) (Hexafluoroglutaric acid; 20000 nM): -0.0095 ± 0.0078 | level (log10) (Hexafluoroglutaric acid; 60000 nM): -0.002 ± 0.017 | level (log10) (Perfluorohexanoic acid; 2200 nM): -0.014 ± 0.031 | level (log10) (Perfluorohexanoic acid; 6700 nM): 0.0025 ± 0.042 | level (log10) (Perfluorohexanoic acid; 20000 nM): -0.0145 ± 0.0078 | level (log10) (Perfluorohexanoic acid; 60000 nM): -0.017 ± 0.017 | level (log10) [6]: 0.019 ± 0.096 | level (log10) ([7]; 2200 nM): -0.0555 ± 0.015 | level (log10) ([7]; 6700 nM): -0.0735 ± 0.039 | level (log10) ([7]; 20000 nM): -0.018 ± 0.0085 | level (log10) ([7]; 60000 nM): -0.008 ± 0.0014 | level (log10) [8]: -0.007 ± 0.041 | level (log10) [9]: 0.0245 ± 0.053 | level (log10) ([10]; 2200 nM): 0.042 ± 0.0085 | level (log10) ([10]; 6700 nM): -0.0175 ± 0.0078 | level (log10) ([10]; 20000 nM): -0.0325 ± 0.046 | level (log10) ([10]; 60000 nM): -0.021 ± 0.0028 | level (log10) [11]: -0.002 ± 0.0057 | level (log10) [12]: -0.066 ± 0.064 | level (log10) [13]: 0.0065 ± 0.044 | level (log10) [14]: 0.0115 ± 0.071 | level (log10) [15]: -0.0015 ± 0.057

MyoF:CD106/VCAM-1
level (log10) [1]: -0.0075 ± 0.029 | level (log10) [2]: -0.002 ± 0.018 | level (log10) [3]: -0.001 ± 0.0085 | level (log10) [4]: -0.0085 ± 0.0035 | level (log10) [5]: -0.03 ± 0.0042 | level (log10) (Hexafluoroglutaric acid; 2200 nM): -0.0255 ± 0.018 | level (log10) (Hexafluoroglutaric acid; 6700 nM): -0.0145 ± 0.021 | level (log10) (Hexafluoroglutaric acid; 20000 nM): -0.023 ± 0.0099 | level (log10) (Hexafluoroglutaric acid; 60000 nM): -0.006 ± 0.0014 | level (log10) (Perfluorohexanoic acid; 2200 nM): 0.0025 ± 0.0064 | level (log10) (Perfluorohexanoic acid; 6700 nM): 0.002 ± 0.0057 | level (log10) (Perfluorohexanoic acid; 20000 nM): 0.002 ± 0.0071 | level (log10) (Perfluorohexanoic acid; 60000 nM): -0.0095 ± 0.013 | level (log10) [6]: 0.0045 ± 0.013 | level (log10) ([7]; 2200 nM): -0.0035 ± 0.011 | level (log10) ([7]; 6700 nM): 0.0105 ± 0.033 | level (log10) ([7]; 20000 nM): 0.012 ± 0.011 | level (log10) ([7]; 60000 nM): -0.011 ± 0.0099 | level (log10) [8]: 0.007 ± 0.0085 | level (log10) [9]: -0.0095 ± 0.019 | level (log10) ([10]; 2200 nM): 0.003 ± 0.038 | level (log10) ([10]; 6700 nM): -0.004 ± 0.0028 | level (log10) ([10]; 20000 nM): 0.0085 ± 0.0021 | level (log10) ([10]; 60000 nM): 0.0155 ± 0.016 | level (log10) [11]: 0.011 ± 0.024 | level (log10) [12]: 0.0005 ± 0.0064 | level (log10) [13]: -0.015 ± 0.025 | level (log10) [14]: -0.024 ± 0.02 | level (log10) [15]: -0.0085 ± 0.019

BE3C:HLA-DR
level (log10) [1]: 0.007 ± 0.018 | level (log10) [2]: 0.0005 ± 0.033 | level (log10) [3]: 0.002 ± 0.038 | level (log10) [4]: 0.0155 ± 0.035 | level (log10) [5]: 0.003 ± 0.04 | level (log10) (Hexafluoroglutaric acid; 2200 nM): 0.003 ± 0.016 | level (log10) (Hexafluoroglutaric acid; 6700 nM): -0.006 | level (log10) (Hexafluoroglutaric acid; 20000 nM): -0.017 ± 0.0014 | level (log10) (Hexafluoroglutaric acid; 60000 nM): -0.021 ± 0.028 | level (log10) (Perfluorohexanoic acid; 2200 nM): 0 ± 0.0014 | level (log10) (Perfluorohexanoic acid; 6700 nM): -0.0025 ± 0.0021 | level (log10) (Perfluorohexanoic acid; 20000 nM): -0.011 ± 0.0028 | level (log10) (Perfluorohexanoic acid; 60000 nM): -0.012 ± 0.0099 | level (log10) [6]: 0.0125 ± 0.036 | level (log10) ([7]; 2200 nM): 0.006 ± 0.0085 | level (log10) ([7]; 6700 nM): -0.022 ± 0.013 | level (log10) ([7]; 20000 nM): -0.0015 ± 0.018 | level (log10) ([7]; 60000 nM): -0.0265 ± 0.0021 | level (log10) [8]: -0.0115 ± 0.0092 | level (log10) [9]: -0.011 ± 0.025 | level (log10) ([10]; 2200 nM): 0.006 ± 0.0085 | level (log10) ([10]; 6700 nM): -0.003 | level (log10) ([10]; 20000 nM): 0 ± 0.0028 | level (log10) ([10]; 60000 nM): 0.0035 ± 0.018 | level (log10) [11]: -0.009 | level (log10) [12]: 0.004 ± 0.025 | level (log10) [13]: 0.003 ± 0.0085 | level (log10) [14]: 0 ± 0.0085 | level (log10) [15]: 0.0005 ± 0.023
